Laboratory results: patent US7087248B2, “Pharmaceutical component based on human parathyroid hormone and a pharmaceutical composition for intranasal administration comprising the component” (Daiichi Asubio Pharma Co., Ltd., priority 2000, dated 2006)

Tested on: nasal cavity
Assay: Sensory test (1): odor and irritation evoked by nasal spraying
Conditions: four healthy normal adult males
Method: As the control, physiological saline was used.
Then, aqueous solutions of various organic acids were prepared, in order to identify the factors responsible for the odor and irritation the preparation evokes when it is applied in the nasal cavity. The organic acid employed included acetic acid, citric acid and tartaric acid; oxalic acid; malic acid; phthalic acid; ascorbic acid; adipic acid; and glycolic acid.
Prepared were 0.1 v/v %, 0.2 v/v %, 0.3 v/v % and 0.6 v/v % aqueous solutions of acetic acid, and 0.6 w/v % aqueous solutions of citric acid, tartaric acid, oxalic acid, malic acid, phthalic acid, ascorbic acid, adipic acid, and glycolic acid. The solution was sprayed into the nasal cavity; and the odor and irritation were assessed in the same manner as above (testers consisting of four healthy normal adult males).
In the same manner as above, the test solution was applied in the nasal cavity, and the odor and irritation evoked thereby were assessed (testers consisting of 12 healthy normal adult males).

[1] = 0.6 w/v % aqueous solution sprayed into the nasal cavity

Row | Structure (SMILES) | Odor [1] | other results
1 | O=C(O)CCCCC(=O)O [Adipic acid] | No odor present | –
2 | O=C(O)CC(O)C(=O)O (stereo not drawn) [Malic acid] | No odor present | –
3 | O=C(O)CC(O)(CC(=O)O)C(=O)O [Citric acid] | No odor present | –
4 | O=C(O)CO [Glycolic acid] | No odor present | –
5 | O=C1O[C@H]([C@@H](O)CO)C(O)=C1O [Ascorbic acid] | No odor present | –
6 | O=C(O)c1ccccc1C(=O)O [Phthalic acid] | No odor present | –
7 | O=C(O)C(=O)O [Oxalic acid] | No odor present | –
8 | CC(=O)O [Acetic acid] | – | Odor (0.1 v/v % aqueous solution sprayed into the nasal cavity): Scarcely any odor present; Odor (0.2 v/v % aqueous solution sprayed into the nasal cavity): Slight acidic odor present; Odor (0.3 v/v % aqueous solution sprayed into the nasal cavity): strong acidic odor; also recorded: Acidic odor present; Odor (0.6 v/v % aqueous solution sprayed into the nasal cavity): strong acidic odor; also recorded: Acidic odor present
9 | O=C(O)C(O)C(O)C(=O)O (stereo not drawn) [Tartaric acid] | No odor present | –

Entries after “also recorded” stand apart in the source; their conditions may differ.
